Results on two substances are retold here after paper PMC11050548.

By UniProt entry, the sequences of proteins in these tests, tags left out.
UniProt Q676U5: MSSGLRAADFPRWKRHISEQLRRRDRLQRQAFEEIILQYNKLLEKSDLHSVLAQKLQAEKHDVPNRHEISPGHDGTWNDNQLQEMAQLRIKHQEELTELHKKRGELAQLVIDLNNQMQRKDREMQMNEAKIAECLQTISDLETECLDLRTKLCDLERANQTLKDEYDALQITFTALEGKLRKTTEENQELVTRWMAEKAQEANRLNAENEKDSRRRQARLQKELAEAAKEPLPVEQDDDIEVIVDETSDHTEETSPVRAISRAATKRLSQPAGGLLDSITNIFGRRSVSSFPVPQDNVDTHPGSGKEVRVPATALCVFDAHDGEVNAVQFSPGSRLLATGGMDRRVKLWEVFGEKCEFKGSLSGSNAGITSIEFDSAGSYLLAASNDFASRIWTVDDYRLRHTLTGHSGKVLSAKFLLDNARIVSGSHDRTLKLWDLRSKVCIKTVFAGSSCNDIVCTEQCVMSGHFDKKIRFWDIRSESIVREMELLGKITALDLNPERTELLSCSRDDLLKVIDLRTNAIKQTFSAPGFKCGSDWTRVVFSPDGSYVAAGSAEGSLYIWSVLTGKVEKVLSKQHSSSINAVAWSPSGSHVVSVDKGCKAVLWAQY
UniProt Q9Y5K8: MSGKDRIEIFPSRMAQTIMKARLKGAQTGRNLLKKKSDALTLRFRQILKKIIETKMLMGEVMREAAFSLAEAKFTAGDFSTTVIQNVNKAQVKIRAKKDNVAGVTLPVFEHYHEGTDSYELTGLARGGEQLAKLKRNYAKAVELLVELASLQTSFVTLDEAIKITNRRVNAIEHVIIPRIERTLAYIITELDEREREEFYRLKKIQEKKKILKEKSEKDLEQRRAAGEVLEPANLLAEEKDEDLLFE
UniProt Q8TDY2: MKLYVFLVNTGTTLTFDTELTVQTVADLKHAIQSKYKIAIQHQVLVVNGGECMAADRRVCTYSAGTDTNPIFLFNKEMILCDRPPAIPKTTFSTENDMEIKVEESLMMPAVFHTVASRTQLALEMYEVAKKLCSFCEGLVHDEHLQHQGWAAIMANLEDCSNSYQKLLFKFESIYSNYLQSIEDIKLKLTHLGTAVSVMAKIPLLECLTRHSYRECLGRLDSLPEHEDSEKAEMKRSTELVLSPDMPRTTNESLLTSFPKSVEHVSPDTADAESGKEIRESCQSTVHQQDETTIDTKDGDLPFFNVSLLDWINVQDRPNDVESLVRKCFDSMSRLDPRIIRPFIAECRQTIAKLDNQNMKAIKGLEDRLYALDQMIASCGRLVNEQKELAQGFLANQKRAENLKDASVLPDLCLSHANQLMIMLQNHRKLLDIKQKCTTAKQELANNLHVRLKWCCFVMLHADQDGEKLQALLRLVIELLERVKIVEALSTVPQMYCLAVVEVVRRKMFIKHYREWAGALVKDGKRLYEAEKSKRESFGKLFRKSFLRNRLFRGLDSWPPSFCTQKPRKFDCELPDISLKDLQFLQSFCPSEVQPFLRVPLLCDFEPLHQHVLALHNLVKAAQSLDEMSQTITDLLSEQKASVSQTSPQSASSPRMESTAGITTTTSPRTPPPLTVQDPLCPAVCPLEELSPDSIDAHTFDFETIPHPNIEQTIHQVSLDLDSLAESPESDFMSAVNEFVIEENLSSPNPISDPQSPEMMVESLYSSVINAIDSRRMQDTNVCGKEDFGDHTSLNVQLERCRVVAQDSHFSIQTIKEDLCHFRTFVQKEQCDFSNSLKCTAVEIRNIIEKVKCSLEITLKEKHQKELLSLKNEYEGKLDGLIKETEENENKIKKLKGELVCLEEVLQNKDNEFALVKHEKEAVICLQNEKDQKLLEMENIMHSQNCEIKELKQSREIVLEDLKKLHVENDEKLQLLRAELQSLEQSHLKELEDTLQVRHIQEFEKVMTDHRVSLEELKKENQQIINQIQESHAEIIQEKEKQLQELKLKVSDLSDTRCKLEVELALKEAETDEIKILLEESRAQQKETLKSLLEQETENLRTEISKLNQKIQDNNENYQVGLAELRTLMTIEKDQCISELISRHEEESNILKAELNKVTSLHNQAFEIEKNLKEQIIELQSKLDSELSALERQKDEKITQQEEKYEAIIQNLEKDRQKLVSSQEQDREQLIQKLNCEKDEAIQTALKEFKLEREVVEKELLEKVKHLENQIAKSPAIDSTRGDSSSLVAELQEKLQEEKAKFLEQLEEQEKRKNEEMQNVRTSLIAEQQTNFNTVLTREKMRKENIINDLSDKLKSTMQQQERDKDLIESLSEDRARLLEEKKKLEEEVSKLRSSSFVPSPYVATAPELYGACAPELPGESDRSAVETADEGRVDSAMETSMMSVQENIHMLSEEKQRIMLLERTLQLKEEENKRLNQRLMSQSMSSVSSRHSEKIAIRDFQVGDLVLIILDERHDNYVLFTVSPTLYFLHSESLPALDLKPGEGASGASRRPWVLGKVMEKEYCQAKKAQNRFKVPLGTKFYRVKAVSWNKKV

For assay [1], the target named is GFP-ATG16L1 (full-length ATG16L1) (human (cDNA cloned from HEK293)) (UniProt Q676U5). The experiment in a line: co-IP; immunoprecipitation with ATG16L1 antibody from cell lysates, blot for FIP200 and ATG16L1; cells with or without 1 uM Torin1 for 1 h (Figure 5C) or after 1 h of starvation (Figure 7I); IP lysis buffer 50 mM Tris-HCl pH 7.4, 1% TritonX-100, 150 mM NaCl, 1 mM EDTA.

Assay [2] has as its target ATP6V1D (human (endogenous in HeLa)) (UniProt Q9Y5K8). Description: co-IP; immunoprecipitation of ATP6V1D from cell lysates, blot for ATG16L1 and ATP6V1D; cells treated with 2 uM Torin1, 10 uM AMDE-1 or 10 uM niclosamide for 6 h (Figure 6I) or 20 uM AMDE-1 for 3 h (Figure 7J); IP lysis buffer 50 mM Tris-HCl pH 7.4, 1% TritonX-100, 150 mM NaCl, 1 mM EDTA.

No constants are given. Whether binding was seen depends on the method and setting. In cells and extracts the contact can be indirect. Some results given as binding are weak or reduced against the parent protein; the word gives no strength.

Take FIP200 (from UniProt Q8TDY2 1-1594): the binding entry in assay [1] was “binds”.

With “GFP-ATG16L1 (full-length ATG16L1) (from UniProt Q676U5 1-607)”, the binding result in assay [2] is recorded as “binds”.
